Assay results: paper PMC6650470
Substitutions are numbered along the chain they refer to. No constants are given. Whether binding was seen depends on the method and setting. In cells and extracts the contact can be indirect. Some results given as binding are weak or reduced against the parent protein; the word gives no strength. Where a sequence is shown, tags or fusion partners need not be part of it.

Columns and labels:
[1] = target: T1, Cdc13-FLAG (S. cerevisiae) (UniProt P32797); assay: co-IP; anti-FLAG M2 magnetic beads, 7 mg asynchronous whole cell lysate, 1 hour at 4 °C; TMG buffer, washes up to 500 mM NaCl with 0.5% Tween-20; blots with α-myc (Est1) and α-FLAG (Cdc13); wild type, yku70∆, yku80∆, yku70-R456E and yku80-135i strains
T1 sequence: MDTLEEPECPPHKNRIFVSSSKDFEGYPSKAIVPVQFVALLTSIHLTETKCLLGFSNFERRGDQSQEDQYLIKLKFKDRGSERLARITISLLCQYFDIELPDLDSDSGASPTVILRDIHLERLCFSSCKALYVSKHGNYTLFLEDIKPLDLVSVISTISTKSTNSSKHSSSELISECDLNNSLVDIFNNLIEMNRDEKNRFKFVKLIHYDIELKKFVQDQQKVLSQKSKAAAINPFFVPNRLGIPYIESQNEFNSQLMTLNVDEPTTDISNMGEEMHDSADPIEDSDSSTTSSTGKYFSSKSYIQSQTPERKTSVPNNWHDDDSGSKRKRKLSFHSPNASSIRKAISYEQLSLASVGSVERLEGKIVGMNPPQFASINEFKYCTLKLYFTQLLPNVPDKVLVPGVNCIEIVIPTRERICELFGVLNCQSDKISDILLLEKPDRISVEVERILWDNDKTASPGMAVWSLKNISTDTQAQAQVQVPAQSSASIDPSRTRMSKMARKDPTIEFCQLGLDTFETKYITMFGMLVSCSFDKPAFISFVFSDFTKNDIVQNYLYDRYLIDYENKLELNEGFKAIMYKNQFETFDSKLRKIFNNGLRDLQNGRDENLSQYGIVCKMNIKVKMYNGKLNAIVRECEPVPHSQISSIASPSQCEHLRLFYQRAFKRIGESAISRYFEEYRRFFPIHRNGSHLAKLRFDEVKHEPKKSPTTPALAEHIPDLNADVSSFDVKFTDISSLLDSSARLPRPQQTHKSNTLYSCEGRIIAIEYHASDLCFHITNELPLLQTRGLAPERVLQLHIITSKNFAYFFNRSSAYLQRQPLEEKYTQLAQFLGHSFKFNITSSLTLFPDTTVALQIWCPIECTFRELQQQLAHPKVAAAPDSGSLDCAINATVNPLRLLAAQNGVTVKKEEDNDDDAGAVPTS

[2] = target: T2, Yku70-R456E/Yku80 heterodimer with Yku80-FLAG (S. cerevisiae) (UniProt P32807+Q04437); assay: co-IP; anti-FLAG M2 magnetic beads, 4 mg whole cell lysate, 1 hour at 4 °C; TMG buffer, washes up to 500 mM NaCl with 0.5% Tween-20; blots with α-myc (Est1) and α-FLAG (Yku80); strains also with TLC1 overexpression or empty vector
T2 sequence 1: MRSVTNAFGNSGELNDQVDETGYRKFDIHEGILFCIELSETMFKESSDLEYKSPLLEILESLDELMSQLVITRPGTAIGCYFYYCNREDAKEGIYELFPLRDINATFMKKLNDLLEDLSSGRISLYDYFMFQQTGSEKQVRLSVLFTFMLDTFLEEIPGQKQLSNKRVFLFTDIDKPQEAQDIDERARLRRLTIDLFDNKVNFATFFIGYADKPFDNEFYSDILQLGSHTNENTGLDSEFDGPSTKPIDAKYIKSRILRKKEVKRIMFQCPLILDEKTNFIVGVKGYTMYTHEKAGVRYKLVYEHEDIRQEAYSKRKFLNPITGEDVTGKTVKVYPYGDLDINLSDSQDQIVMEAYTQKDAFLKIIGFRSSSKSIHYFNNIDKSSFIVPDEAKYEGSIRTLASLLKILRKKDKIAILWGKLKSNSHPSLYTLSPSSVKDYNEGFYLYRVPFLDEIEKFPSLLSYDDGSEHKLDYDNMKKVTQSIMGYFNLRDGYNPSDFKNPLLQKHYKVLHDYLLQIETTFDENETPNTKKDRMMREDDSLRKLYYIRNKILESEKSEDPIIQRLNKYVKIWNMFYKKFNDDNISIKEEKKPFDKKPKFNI
T2 sequence 2: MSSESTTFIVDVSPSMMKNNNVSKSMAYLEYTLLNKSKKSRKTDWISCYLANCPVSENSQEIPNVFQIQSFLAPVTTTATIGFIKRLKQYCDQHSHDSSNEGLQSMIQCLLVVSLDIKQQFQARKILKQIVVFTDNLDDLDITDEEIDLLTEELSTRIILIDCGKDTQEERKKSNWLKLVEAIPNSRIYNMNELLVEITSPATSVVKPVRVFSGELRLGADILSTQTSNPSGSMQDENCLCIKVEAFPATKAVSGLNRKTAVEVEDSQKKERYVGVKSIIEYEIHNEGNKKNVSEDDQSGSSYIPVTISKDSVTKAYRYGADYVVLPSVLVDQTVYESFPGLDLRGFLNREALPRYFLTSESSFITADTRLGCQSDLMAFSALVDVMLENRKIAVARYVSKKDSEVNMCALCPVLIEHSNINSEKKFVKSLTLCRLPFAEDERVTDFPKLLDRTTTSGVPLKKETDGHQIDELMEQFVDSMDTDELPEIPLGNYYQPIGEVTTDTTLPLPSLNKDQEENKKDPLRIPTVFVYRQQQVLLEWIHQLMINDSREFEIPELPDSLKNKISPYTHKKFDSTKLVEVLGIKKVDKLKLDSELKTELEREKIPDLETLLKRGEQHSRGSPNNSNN

[3] = target: T3, Yku70/Yku80 (Ku) heterodimer with Yku80-FLAG (S. cerevisiae) (UniProt P32807+Q04437); assay: as above
T3 sequence 1: T2 sequence 1 with E456R
T3 sequence 2: T2 sequence 2

Measured: binding

B1: Est1-myc (protein, UniProt P17214 1-699)
chain: MDNEEVNEECMRLFFKNARAHLDKHLTSRLTCDENAYITFRCFLDGIHRKSTRFLEELLLKQENMYHNNNYERINDSVIPLVLKLLWLQIHEPTLQWFEHWFHDIMRLSNRRKFRVFRIFQKKMIQFFKITHRYYYDIIEHLCAKYDMNSVISNALFAKLNLMQYTDGLSTHEKIILNTSNPLTFSIVISLQRCVINLGSTHFYKTLLNKPSNKPKSVEGFEKSIRYLNIASLYLPAVGDTYFQRAKIYLITGKFSLYFFELVRGALVRIPSKCALNNLKDFILTPDFPERRRLMKKLAILVSKDLKGEKSFFEGQIVLQFLSIVEHTLVPQSWNASRASNCWLLKEHLQMAALKYHSGNINVILENLAATMGSFDLMFTTRKSKEQKNKLKYADLSERQVFFLDLSFDFIANIIDVVIKPSWQKNMEDFRYLAIIRLLMCWIKSYRSILQYTHRHRKFCTSFALLLNDLINSPLNCSGNIYSHRPKRSYLFREDIIFREFSCINFALTDFNDDYVYDSPDMINNIIGCPTLTKVLSPKEECVLRIRSIIFSGMKFLEKNDTGVIWNASKYKFDLISPNIKIKRQIALSEISSKINVKTQQERVVSSRKVEAKRDEQQRKRAGKIAVTELEKQFANVRRTKKLSPLPEKDGVSSELVKHAASRGRKTITGPLSSDFLSYPDEAIDADEDITVQVPDTPT
binds: all assays above
